Experimental data from US6716582B2 (priority 2000, dated 2004).
At least one structure is not confirmed: it was looked up by name or label, or the drawing left a doubt.

Tested on: LuxArray 1.04 luxCDABE gene fusions
Assay: LuxArray 1.04 limonene stress in liquid culture
Type: cell-based, E. coli
Details: 80% saturated limonene
Procedure: Microplates from −80° C. containing the LuxArray 1.04 E. coli strains were thawed and used to inoculate 100 μl LB medium supplemented with 100 μg/ml ampicillin in Costar#3595 flat bottomed 96-well microplates. Following overnight growth at 37° C., the plates were visually examined and any wells with little or no turbidity were recorded. Then these cultures were diluted by transfer of 15 μl to 135 μl LB medium in Costar #3595, flat bottom 96-well microplates and were moderately swirl shaken on an IKA Schuttler MTS 4 shaker at setting 400 for two hrs at 37° C. in a humidified box. Twenty μl of each these actively growing cultures were transferred to the corresponding well in sets of three microplates, one containing 80 μl of LB medium, another containing 80 μl of LB medium saturated with limonene at room temperature, and the third containing 40 μl of LB medium saturated with limonene and 40 μl of LB medium. An initial (zero time) reading was taken using an MLX microplate luminometer (Dynex) pre-warmed to 37° C. Then the plates were placed at 37° C. without shaking. Additional bioluminescent measurements were taken at 45, 90, and 135 minutes. To limit the number of microplates handled each day, LuxArray 1.04 microplates 1 to 5, microplates 6 to 10, microplates 11 to 15, and microplates […] were used on each of four different days.
The data were normalized to correct for growth inhibition caused by limonene on the basis of each individual day that data was collected. The bioluminescence (RLU) of each individual culture for each day of experimentation under each of the three conditions, were added to determine the daily array total RLU. These were used to find a daily normalization factor (DNF) as follows:
DNF=Daily total array signal (time zero, LB control)/Daily total array signal (time x, condition y)
Each measurement from the corresponding day, time point, and condition was multiplied by DNF to yield a normalized signal. The data from wells that were scored to have little or no growth were not used in further analysis. The normalized data were analyzed with GeneSpring (Silicon Genetics) software, which averaged the signal from each of the duplicate cultures for each reporter gene fusion.
Thus, patterns of gene expression from the 80% saturated limonene in LB medium were further examined. […] These lists were examined and gene fusions with very low normalized RLU values (<0.012 RLU) at all conditions were eliminated. […] The designation of “>2×” is given for upregulation while “*” is listed if the expression was less than 2 fold increased. At 45 minutes, the expression of fourteen gene fusions was increased; none of these was increased 3 fold or higher. At 90 minutes, 37 gene fusions were induced; these included all but one of the gene fusions observed at 45 minutes. […] These were fusions of the luxCDABE reporter to the promoter regions of uhpT (3.8×), nirB (3.7×) and narK (3.6×). At 135 minutes, 39 gene fusions were induced, which included 13 fusions not observed at 45 or 90 minutes.

## C=C(C)[C@H]1CC=C(C)CC1 [limonene]
b0774 (bioA)-lux, 135 minutes
  upregulation of gene fusion: >2X (Lists were made of gene fusions that were upregulated by 2 fold or more; The designation of “>2×” is given for upregulation)
b0839 (dacC)-lux, 45 minutes
  upregulation of gene fusion: * (“*” is listed if the expression was less than 2 fold increased)
b0839 (dacC)-lux, 90 minutes
  upregulation of gene fusion: >2X (Lists were made of gene fusions that were upregulated by 2 fold or more; The designation of “>2×” is given for upregulation)
b0839 (dacC)-lux, 135 minutes
  upregulation of gene fusion: >2X (Lists were made of gene fusions that were upregulated by 2 fold or more; The designation of “>2×” is given for upregulation)
b0842-lux, 45 minutes
  upregulation of gene fusion: >2X (Lists were made of gene fusions that were upregulated by 2 fold or more; The designation of “>2×” is given for upregulation)
b0842-lux, 90 minutes
  upregulation of gene fusion: >2X (Lists were made of gene fusions that were upregulated by 2 fold or more; The designation of “>2×” is given for upregulation)
b0842-lux, 135 minutes
  upregulation of gene fusion: >2X (Lists were made of gene fusions that were upregulated by 2 fold or more; The designation of “>2×” is given for upregulation)
b1186 (nhaB)-lux, 45 minutes
  upregulation of gene fusion: >2X (Lists were made of gene fusions that were upregulated by 2 fold or more; The designation of “>2×” is given for upregulation)
b1186 (nhaB)-lux, 90 minutes
  upregulation of gene fusion: >2X (Lists were made of gene fusions that were upregulated by 2 fold or more; The designation of “>2×” is given for upregulation)
b1186 (nhaB)-lux, 135 minutes
  upregulation of gene fusion: >2X (Lists were made of gene fusions that were upregulated by 2 fold or more; The designation of “>2×” is given for upregulation)
b1188 (ycgB)-lux, 45 minutes
  upregulation of gene fusion: * (“*” is listed if the expression was less than 2 fold increased)
b1188 (ycgB)-lux, 90 minutes
  upregulation of gene fusion: >2X (Lists were made of gene fusions that were upregulated by 2 fold or more; The designation of “>2×” is given for upregulation)
b1188 (ycgB)-lux, 135 minutes
  upregulation of gene fusion: * (“*” is listed if the expression was less than 2 fold increased)
b1223 (narK)-lux, 45 minutes
  upregulation of gene fusion: * (“*” is listed if the expression was less than 2 fold increased)
b1223 (narK)-lux, 90 minutes
  upregulation of gene fusion: >2X (Lists were made of gene fusions that were upregulated by 2 fold or more; The designation of “>2×” is given for upregulation)
b1223 (narK)-lux, 135 minutes
  upregulation of gene fusion: >2X (Lists were made of gene fusions that were upregulated by 2 fold or more; The designation of “>2×” is given for upregulation)
b1413 (hrpA)-lux, 45 minutes
  upregulation of gene fusion: >2X (Lists were made of gene fusions that were upregulated by 2 fold or more; The designation of “>2×” is given for upregulation)
b1413 (hrpA)-lux, 90 minutes
  upregulation of gene fusion: >2X (Lists were made of gene fusions that were upregulated by 2 fold or more; The designation of “>2×” is given for upregulation)
b1413 (hrpA)-lux, 135 minutes
  upregulation of gene fusion: >2X (Lists were made of gene fusions that were upregulated by 2 fold or more; The designation of “>2×” is given for upregulation)
b1676 (pykF)-lux, 45 minutes
  upregulation of gene fusion: >2X (Lists were made of gene fusions that were upregulated by 2 fold or more; The designation of “>2×” is given for upregulation)
b1676 (pykF)-lux, 90 minutes
  upregulation of gene fusion: >2X (Lists were made of gene fusions that were upregulated by 2 fold or more; The designation of “>2×” is given for upregulation)
b1676 (pykF)-lux, 135 minutes
  upregulation of gene fusion: >2X (Lists were made of gene fusions that were upregulated by 2 fold or more; The designation of “>2×” is given for upregulation)
b1847 (yebF)-lux, 45 minutes
  upregulation of gene fusion: * (“*” is listed if the expression was less than 2 fold increased)
b1847 (yebF)-lux, 90 minutes
  upregulation of gene fusion: * (“*” is listed if the expression was less than 2 fold increased)
b1847 (yebF)-lux, 135 minutes
  upregulation of gene fusion: >2X (Lists were made of gene fusions that were upregulated by 2 fold or more; The designation of “>2×” is given for upregulation)
b1852 (zwf)-lux, 45 minutes
  upregulation of gene fusion: * (“*” is listed if the expression was less than 2 fold increased)
b1852 (zwf)-lux, 90 minutes
  upregulation of gene fusion: * (“*” is listed if the expression was less than 2 fold increased)
b1852 (zwf)-lux, 135 minutes
  upregulation of gene fusion: >2X (Lists were made of gene fusions that were upregulated by 2 fold or more; The designation of “>2×” is given for upregulation)
b1872 (bisZ)-lux, 45 minutes
  upregulation of gene fusion: * (“*” is listed if the expression was less than 2 fold increased)
b1872 (bisZ)-lux, 90 minutes
  upregulation of gene fusion: >2X (Lists were made of gene fusions that were upregulated by 2 fold or more; The designation of “>2×” is given for upregulation)
b1872 (bisZ)-lux, 135 minutes
  upregulation of gene fusion: >2X (Lists were made of gene fusions that were upregulated by 2 fold or more; The designation of “>2×” is given for upregulation)
b1993 (cobU)-lux, 45 minutes
  upregulation of gene fusion: >2X (Lists were made of gene fusions that were upregulated by 2 fold or more; The designation of “>2×” is given for upregulation)
b1993 (cobU)-lux, 90 minutes
  upregulation of gene fusion: >2X (Lists were made of gene fusions that were upregulated by 2 fold or more; The designation of “>2×” is given for upregulation)
b1993 (cobU)-lux, 135 minutes
  upregulation of gene fusion: >2X (Lists were made of gene fusions that were upregulated by 2 fold or more; The designation of “>2×” is given for upregulation)
b2019 (hisG)-lux, 45 minutes
  upregulation of gene fusion: * (“*” is listed if the expression was less than 2 fold increased)
b2019 (hisG)-lux, 90 minutes
  upregulation of gene fusion: * (“*” is listed if the expression was less than 2 fold increased)
b2019 (hisG)-lux, 135 minutes
  upregulation of gene fusion: >2X (Lists were made of gene fusions that were upregulated by 2 fold or more; The designation of “>2×” is given for upregulation)
b2081-lux, 45 minutes
  upregulation of gene fusion: >2X (Lists were made of gene fusions that were upregulated by 2 fold or more; The designation of “>2×” is given for upregulation)
